Measurements: doi:10.1101/2024.07.10.602881

Chains of the proteins cited; added tags and fusions are not shown. Lines headed by an entry give the natural chain unless they say otherwise; changes in a name come on top. Residues count along the entry.
UniProt P51451: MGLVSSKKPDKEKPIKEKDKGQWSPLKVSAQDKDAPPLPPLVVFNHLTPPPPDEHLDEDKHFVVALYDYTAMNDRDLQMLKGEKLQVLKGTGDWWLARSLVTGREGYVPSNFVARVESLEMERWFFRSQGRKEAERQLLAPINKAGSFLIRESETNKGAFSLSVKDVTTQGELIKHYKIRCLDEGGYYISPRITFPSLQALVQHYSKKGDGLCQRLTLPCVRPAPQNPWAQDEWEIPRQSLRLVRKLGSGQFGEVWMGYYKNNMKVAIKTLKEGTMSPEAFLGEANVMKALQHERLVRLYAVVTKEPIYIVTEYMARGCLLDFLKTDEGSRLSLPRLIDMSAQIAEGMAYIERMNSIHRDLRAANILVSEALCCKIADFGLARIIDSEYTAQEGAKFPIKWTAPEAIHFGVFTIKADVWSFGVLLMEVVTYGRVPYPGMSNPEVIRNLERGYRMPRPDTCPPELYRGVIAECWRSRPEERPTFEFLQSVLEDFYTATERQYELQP
UniProt P07948: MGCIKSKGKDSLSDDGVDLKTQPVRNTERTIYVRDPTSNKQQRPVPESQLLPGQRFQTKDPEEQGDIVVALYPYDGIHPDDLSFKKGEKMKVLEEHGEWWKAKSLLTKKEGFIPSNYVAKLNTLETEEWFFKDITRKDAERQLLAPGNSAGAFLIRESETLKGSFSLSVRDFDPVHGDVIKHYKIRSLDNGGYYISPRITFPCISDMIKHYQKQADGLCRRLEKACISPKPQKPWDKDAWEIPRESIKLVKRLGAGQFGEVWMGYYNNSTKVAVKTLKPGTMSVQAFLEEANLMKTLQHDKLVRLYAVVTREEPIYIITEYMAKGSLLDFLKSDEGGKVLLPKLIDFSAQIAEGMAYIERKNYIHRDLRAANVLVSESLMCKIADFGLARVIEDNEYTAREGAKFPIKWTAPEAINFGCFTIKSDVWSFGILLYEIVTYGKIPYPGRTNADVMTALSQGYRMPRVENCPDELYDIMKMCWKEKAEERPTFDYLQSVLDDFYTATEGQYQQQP
UniProt O14672: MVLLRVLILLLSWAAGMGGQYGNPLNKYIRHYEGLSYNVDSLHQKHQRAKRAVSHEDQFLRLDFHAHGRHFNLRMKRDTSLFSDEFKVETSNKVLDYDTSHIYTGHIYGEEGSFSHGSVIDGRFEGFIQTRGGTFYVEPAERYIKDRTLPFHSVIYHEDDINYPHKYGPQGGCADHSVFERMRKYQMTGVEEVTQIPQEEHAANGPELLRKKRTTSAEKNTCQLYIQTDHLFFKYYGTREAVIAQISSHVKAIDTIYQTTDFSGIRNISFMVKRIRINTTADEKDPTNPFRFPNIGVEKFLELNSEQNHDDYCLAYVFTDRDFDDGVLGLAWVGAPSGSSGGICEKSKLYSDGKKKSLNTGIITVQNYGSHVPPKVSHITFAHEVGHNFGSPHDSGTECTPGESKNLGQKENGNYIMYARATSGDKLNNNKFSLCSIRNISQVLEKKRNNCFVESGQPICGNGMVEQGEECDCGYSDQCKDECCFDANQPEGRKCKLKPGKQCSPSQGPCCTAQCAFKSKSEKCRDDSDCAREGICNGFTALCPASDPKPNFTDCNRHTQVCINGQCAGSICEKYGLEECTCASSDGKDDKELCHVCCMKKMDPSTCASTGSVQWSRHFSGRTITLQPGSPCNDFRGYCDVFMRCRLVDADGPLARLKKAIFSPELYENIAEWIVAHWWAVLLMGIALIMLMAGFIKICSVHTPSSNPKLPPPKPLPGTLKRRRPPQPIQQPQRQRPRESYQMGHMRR
UniProt Q92542, residues 34-709: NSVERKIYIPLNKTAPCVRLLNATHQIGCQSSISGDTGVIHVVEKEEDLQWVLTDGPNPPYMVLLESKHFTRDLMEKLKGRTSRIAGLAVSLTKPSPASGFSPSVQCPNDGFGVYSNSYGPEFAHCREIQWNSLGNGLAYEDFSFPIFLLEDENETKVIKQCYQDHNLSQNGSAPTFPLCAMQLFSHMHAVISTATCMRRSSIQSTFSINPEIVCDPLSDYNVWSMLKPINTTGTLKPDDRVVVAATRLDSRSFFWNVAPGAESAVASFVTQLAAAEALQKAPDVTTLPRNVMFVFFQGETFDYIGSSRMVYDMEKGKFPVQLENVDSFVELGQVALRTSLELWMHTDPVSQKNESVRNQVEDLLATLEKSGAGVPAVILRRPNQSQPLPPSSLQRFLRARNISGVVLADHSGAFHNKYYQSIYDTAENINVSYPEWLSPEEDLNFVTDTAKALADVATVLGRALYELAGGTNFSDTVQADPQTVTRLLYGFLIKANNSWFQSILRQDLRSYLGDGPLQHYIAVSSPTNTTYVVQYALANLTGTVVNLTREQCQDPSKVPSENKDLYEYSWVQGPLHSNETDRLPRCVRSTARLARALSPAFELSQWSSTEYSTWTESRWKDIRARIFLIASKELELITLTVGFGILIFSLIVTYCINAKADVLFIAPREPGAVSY
UniProt Q13191: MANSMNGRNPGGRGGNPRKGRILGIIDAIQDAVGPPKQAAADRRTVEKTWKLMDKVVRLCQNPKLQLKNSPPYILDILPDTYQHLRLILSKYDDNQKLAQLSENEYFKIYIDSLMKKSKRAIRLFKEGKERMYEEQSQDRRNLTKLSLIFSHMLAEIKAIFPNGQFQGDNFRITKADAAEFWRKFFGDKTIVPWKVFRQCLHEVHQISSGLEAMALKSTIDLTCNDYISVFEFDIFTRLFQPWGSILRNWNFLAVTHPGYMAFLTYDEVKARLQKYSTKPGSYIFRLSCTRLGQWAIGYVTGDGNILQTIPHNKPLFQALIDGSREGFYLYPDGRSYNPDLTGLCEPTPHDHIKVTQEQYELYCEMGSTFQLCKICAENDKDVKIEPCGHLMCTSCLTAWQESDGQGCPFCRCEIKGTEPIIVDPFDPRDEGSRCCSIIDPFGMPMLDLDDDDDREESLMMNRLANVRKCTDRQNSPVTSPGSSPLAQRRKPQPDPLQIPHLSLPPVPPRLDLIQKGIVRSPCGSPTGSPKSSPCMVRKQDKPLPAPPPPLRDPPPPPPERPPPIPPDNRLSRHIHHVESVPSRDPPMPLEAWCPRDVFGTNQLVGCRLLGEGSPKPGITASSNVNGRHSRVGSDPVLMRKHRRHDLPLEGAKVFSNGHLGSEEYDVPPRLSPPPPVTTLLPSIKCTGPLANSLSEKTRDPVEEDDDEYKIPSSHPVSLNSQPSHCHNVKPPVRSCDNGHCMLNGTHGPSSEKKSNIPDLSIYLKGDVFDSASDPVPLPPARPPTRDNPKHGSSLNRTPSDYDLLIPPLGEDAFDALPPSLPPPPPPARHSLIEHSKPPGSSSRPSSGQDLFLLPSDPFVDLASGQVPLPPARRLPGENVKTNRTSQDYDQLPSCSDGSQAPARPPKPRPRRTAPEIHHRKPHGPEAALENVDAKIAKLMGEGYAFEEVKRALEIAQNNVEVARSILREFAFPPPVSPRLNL

How the values were obtained:
[1] = target: BLK fused to the miniTurbo (mT) biotin ligase (UniProt P51451); assay: proximity labelling
[2] = target: LYN fused to the miniTurbo (mT) biotin ligase (UniProt P07948); assay: proximity labelling

binding [1] | binding [2] | Substance
binds |  | ADAM10 (from UniProt O14672)
binds |  | γ-secretase subunit NCSTN (from UniProt Q92542 34-709)
 | binds | E3 ligase CBL-B (from UniProt Q13191 1-982)

These are yes or no findings as the source states them, for the method shown. Binding seen in cells or lysates may run through a third protein. Here binding means that the protein was enriched with, or labelled near, the bait; the list need not be complete.
